These results are taken from patent US20260085091A1, “PEPTIDES THAT SELECTIVELY BIND TO Trop2 AND USE THEREOF” (KYUNGPOOK NATIONAL UNIVERSITY INDUSTRY-ACADEMIC COOPERATION …, priority 2022, published 2026).

Protein sequences, listed by entry. Tags and fused reporters are not part of them. Lines headed by an entry give the natural chain unless they say otherwise; changes in a name come on top. Residues count along the entry.
UniProt P09758: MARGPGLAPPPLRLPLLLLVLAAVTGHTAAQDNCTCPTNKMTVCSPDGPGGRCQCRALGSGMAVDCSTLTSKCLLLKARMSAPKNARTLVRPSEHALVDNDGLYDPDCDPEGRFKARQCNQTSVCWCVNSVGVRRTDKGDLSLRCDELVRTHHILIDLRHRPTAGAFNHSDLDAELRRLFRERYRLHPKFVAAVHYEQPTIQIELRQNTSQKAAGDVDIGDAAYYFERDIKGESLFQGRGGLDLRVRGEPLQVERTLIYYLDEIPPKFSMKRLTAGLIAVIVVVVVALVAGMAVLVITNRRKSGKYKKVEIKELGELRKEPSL
human Trop2 linked with green fluorescence protein (GFP), expressed in transfected HEK293T cells: residues 27-323 of P09758
human recombinant Trop2 protein: residues 27-274 of P09758

No constants are given. Whether binding was seen depends on the method and setting. For some of these results: In cells and extracts the contact can be indirect. Some results given as binding are weak or reduced against the parent protein; the word gives no strength.

In assay [1] the target is Trop2 (trophoblast antigen 2) expressed on human tumor cell lines (human) (UniProt P09758). The experiment in a line: phage cell ELISA, anti-T7 antibody detection.
For assay [2], the target named is human Trop2 linked with green fluorescence protein (GFP), expressed in transfected HEK293T cells (human) (UniProt P09758). Nature of the assay: pull-down from lysates of Trop2-overexpressing HEK293T cells, anti-Trop2 western blot. On the technique in general: In western blotting, separated proteins are transferred to a membrane and probed.
For assay [3], the target named is human recombinant Trop2 protein (human) (UniProt P09758). Nature of the assay: ELISA, rTrop2 coated, biotin-peptide detected with streptavidin-HRP. A general note: In an ELISA, binding on a coated surface is turned into a signal by an enzyme label.
The target of assay [4] is human Trop2 linked with green fluorescence protein (GFP), expressed in transfected HEK293T cells (human) (UniProt P09758). The experiment in a line: pull-down competition; competitor of the biotin-labeled … peptide for Trop2 in cell lysates.

In the case of CSTLNVESC (peptide, not shown: large carriers) [phage clone expressing … (SEQ ID NO: 1) peptide], in assay [1], the binding result was “binds”.

As for CSTLNVESC (biotin conjugated at the N-terminal) [N-terminal biotin-linked … (SEQ ID NO: 1) peptide], the binding entry in assay [2] and in assay [3] was “binds” in each case. CSTLNVESC [unlabeled … (SEQ ID NO: 1) peptide]: the binding result in assay [4] was “binds”.
